About 3,700 (0.93%) of roughly 400,000 compounds were called active. Calls follow the shape of the dose curve; as a rule, active = well fitted inhibition curve with a large enough effect; inconclusive = small, poorly fitted or top-dose-only effect, or another doubt; inactive = no such curve, though single readings can be large or run the other way. Inconclusive means that the source gave no clear call. A potency beside an inconclusive call is a rough fit, not a confirmed value.
molecular target: Vitamin D3 receptor (Homo sapiens) (UniProt P11473); assay: Inhibitors of the vitamin D receptor (VDR): qHTS; conditions: VDR-SRC2-3 peptide fluorescence polarization, 2 h; max response, negative = inhibition: stronger effect = lower value
From the text: The vitamin D receptor (VDR) is a ligand-activated transcription factor and is partially responsible for the regulation of the endocrine system. This includes the transcriptional regulation of genes involved in the production of the parathyroid hormone (PTH) and the regulation of the blood calcium level. High levels of PHT can cause hypercalcemia in the case of primary and tertiary hyperparathyroidism. The VDR-mediated gene regulation, activated by its ligand 1,25-dihydroxyvitamin D3 (1,25-(OH)2D3), is governed by the recruitment of coactivators. Our hypothesis is that small molecules, with the ability to inhibit the interaction between VDR and certain coactivators, are able to selectively modulate VDR-mediated transcription. Our long term objective is the application these VDR-coactivator inhibitors to study the role of VDR-coactivator binding for specific VDR regulated genes. Ultimately, these molecules can be developed into new treatments for hypercalcemic hyperparathyroidism. No small molecule or non-peptide inhibitors are known for the VDR-coactivator interaction.
In a collaboration between the University of Wisconsin, Milwaukee and the NIH Chemical Genomics Center (NCGC) a HTS-compatible enzymatic assay was developed. The assay uses fluorescence polarization as its read-out to measure the inhibition between VDR and coregulator peptide SRC2-3 exerted by small molecules. This assay was used to screen the NIH Molecular Libraries Small Molecule Repository (MLSMR).
NIH Chemical Genomics Center [NCGC]
NIH Molecular Libraries Probe Centers Network [MLPCN]
Assay Submitter (PI): Alexander Arnold, University of Wilwaukee
Both solutions are kept at 4 deg C and protected from light and dispensed using a Kalypsys dispenser. Then 23nl of compounds and controls are added with Kalypsys pintool. […] Plate is centrifuged at 1000 RPM for 15 seconds to remove any residual bubbles. The plate is then incubate at ambient room temperature for 2 hours.
Potency is read from the fitted curve at half-maximal effect.

Protein sequences, listed by entry. Tags and fused reporters are not part of them. Lines headed by an entry give the natural chain unless they say otherwise; changes in a name come on top.
UniProt P11473: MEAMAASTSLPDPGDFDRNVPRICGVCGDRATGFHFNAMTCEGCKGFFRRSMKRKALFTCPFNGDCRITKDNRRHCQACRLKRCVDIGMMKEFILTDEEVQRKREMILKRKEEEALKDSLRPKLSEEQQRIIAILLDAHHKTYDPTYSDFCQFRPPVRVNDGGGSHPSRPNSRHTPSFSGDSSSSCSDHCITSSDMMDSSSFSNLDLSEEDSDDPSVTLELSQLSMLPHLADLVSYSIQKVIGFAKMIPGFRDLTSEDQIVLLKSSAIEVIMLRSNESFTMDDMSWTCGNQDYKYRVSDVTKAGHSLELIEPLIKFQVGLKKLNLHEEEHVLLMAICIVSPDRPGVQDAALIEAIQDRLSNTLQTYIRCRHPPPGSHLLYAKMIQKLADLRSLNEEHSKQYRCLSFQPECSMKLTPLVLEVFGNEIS

Row | Structure (SMILES) | Potency
1 | CC(C)(C)c1ccc2c(c1)OC(C(=O)N/N=C\c1ccc(-c3cccc(C(=O)O)c3)o1)CO2 (centres undefined) | inconclusive: 89.1 µM [inhibitor, single point]
2 | CS(=O)(=O)C1=NSC2=NC(=O)/C(=C\c3ccc(OC(=O)c4ccco4)c(Br)c3)C(=N)N21 | inconclusive: 50.1 µM [inhibitor, partial curve, poor fit]
3 | COc1cc(/C=C2\C(=N)N3N=C(S(C)(=O)=O)SC3=NC2=O)ccc1OCCOc1ccccc1C | inconclusive: 70.8 µM [inhibitor, partial curve]
4 | CCCOc1ccc(C2C(C(=O)c3cc4ccccc4o3)=C(O)C(=O)N2c2cc(C)on2)cc1 (centres undefined) | inconclusive: 89.1 µM [inhibitor, single point]
5 | Cc1c(CC(=O)O)c(=O)oc2c(C)c3occ(-c4ccc(Br)cc4)c3cc12 | inconclusive: 100 µM [inhibitor, single point]
6 | Cc1ccc(S(=O)(=O)Oc2ccc(/C=C3/C(=N)N4C(=NC3=O)SN=C4S(C)(=O)=O)cc2)cc1 | inconclusive: 28.2 µM [inhibitor, partial curve, poor fit]
7 | CC(c1ccccc1)N1C(=O)c2ccc(C(=O)Nc3ccc(Br)cc3C(=O)O)cc2C1=O (centres undefined) | inconclusive: 79.4 µM [inhibitor, single point]
8 | CCOC(=O)C1=C(C)N=c2s/c(=C\c3ccc(OCC(=O)O)c(OC)c3)c(=O)n2C1c1ccc(OC)cc1 (centres undefined) | inconclusive: 50.1 µM [inhibitor, partial curve]
9 | Cc1ccccc1N/N=C/c1sc(=O)n(Cc2cccc(C(=O)O)c2)c1Cl | inconclusive: 79.4 µM [inhibitor, partial curve, poor fit]
10 | Cc1cc(N2C(=O)C(O)=C(C(=O)c3cc4ccccc4o3)C2c2cccc(Br)c2)no1 (centres undefined) | inconclusive: 89.1 µM [inhibitor, single point]
11 | Cc1cc(C)cc(-n2cccc2/C=C2/C(=N)N3C(=NC2=O)SN=C3S(C)(=O)=O)c1 | inconclusive: 56.2 µM [inhibitor, single point]
12 | COc1cc(/C=C2\C(=N)N3N=C(S(C)(=O)=O)SC3=NC2=O)cc(OC)c1OCCOc1ccc(C)cc1 | inconclusive: 89.1 µM [inhibitor, single point]
13 | CCOC(=O)c1sc(N2C(=O)C(O)=C(C(=O)c3ccc(C)o3)C2c2cccc([N+](=O)[O-])c2)nc1C (centres undefined) | inconclusive: 56.2 µM [inhibitor, partial curve, poor fit]
14 | COc1cc(/C=C2\C(=N)N3N=C(S(C)(=O)=O)SC3=NC2=O)cc(OC)c1OCCOc1cccc(C)c1 | inconclusive: 39.8 µM [inhibitor, full curve, poor fit]

Source: PubChem BioAssay AID504847 (National Center for Advancing Translational Sciences (NCATS), 2011)
